The target of experiment [1] is T1, FLAG-GMCL1 E142K (human) (UniProt Q96IK5).
T1 sequence: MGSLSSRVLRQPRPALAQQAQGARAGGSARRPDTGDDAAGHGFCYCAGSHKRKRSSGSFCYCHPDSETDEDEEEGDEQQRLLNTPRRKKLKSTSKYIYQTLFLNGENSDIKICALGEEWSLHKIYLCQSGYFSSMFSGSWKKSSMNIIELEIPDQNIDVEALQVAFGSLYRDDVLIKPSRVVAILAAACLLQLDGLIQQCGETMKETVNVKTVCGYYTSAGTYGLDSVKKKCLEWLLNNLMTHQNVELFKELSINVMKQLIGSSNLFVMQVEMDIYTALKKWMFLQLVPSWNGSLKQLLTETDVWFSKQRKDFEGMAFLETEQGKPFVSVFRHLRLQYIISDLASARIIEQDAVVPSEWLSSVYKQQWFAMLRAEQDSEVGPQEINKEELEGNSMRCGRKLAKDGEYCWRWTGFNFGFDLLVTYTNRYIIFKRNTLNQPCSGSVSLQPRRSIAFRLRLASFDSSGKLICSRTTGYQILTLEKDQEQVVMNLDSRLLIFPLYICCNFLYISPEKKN
Kind of experiment: affinity purification with mass spectrometry; FLAG-tagged GMCL1 WT, EK or BBO expressed in HEK293T (24 h), captured on FLAG-M2 magnetic beads (4°C, 2 h), eluted with FLAG peptide, MS/MS; SAINT score > 0.70, FDR < 5%, compared with BBO.

Protein sequences, listed by entry. Tags and fused reporters are not part of them.
UniProt Q12888: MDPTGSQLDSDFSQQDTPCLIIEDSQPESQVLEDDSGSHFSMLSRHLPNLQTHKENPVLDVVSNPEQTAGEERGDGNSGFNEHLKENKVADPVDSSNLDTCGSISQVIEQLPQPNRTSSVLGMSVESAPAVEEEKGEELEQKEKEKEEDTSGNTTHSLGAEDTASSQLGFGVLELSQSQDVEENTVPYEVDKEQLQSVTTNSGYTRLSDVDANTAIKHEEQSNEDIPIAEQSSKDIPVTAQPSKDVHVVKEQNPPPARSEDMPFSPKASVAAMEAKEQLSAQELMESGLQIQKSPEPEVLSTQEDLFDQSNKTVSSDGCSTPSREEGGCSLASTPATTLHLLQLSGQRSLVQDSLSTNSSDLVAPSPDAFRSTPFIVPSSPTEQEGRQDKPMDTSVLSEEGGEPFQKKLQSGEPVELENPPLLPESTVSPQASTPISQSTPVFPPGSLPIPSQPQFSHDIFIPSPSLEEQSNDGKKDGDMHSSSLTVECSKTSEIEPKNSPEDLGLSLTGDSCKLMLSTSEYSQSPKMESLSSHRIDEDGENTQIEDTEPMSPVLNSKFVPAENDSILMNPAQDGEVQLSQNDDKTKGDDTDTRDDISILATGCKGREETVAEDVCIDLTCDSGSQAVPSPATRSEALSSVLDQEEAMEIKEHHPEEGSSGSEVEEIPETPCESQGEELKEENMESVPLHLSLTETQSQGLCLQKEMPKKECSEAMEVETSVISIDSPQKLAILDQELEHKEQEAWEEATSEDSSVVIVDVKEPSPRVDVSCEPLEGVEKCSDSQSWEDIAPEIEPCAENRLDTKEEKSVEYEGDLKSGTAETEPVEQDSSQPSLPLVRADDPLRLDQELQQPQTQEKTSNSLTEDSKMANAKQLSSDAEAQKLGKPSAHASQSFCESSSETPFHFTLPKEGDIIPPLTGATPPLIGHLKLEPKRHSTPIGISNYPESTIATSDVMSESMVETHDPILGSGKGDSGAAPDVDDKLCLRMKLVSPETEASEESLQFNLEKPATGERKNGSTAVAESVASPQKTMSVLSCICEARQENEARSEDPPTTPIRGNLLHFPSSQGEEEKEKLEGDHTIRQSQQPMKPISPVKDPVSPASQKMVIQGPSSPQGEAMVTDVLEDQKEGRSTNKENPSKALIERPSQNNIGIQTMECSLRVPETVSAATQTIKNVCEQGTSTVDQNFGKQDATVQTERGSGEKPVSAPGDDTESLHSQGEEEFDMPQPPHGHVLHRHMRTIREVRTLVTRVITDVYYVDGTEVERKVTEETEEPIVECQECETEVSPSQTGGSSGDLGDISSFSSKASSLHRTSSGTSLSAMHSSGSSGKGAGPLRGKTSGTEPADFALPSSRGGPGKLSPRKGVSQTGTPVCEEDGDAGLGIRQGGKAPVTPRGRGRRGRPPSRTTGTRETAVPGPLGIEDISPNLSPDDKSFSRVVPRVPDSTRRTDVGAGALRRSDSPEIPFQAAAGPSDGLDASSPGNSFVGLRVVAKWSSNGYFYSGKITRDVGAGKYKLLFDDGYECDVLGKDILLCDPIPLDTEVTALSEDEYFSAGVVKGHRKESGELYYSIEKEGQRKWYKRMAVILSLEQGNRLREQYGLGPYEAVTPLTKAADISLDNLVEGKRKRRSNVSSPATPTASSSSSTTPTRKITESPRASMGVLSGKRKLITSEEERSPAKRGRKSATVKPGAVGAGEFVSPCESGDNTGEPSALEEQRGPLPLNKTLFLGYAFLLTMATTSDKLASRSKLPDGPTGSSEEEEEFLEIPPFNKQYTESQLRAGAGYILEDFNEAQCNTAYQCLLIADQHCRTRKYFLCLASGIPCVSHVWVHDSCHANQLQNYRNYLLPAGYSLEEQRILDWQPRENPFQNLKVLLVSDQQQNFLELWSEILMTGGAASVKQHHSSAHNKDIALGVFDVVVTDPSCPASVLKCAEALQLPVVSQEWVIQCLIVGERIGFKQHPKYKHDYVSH

For experiment [2], the target named is T2, FLAG-GMCL1 WT (wild-type human germ cell-less protein-like 1) (human) (UniProt Q96IK5).
T2 sequence: T1 sequence with K142E
The experiment is described as above.

Where a chain is given by its changes, count along the chain named. These are yes or no findings as the source states them, for the method shown. In cells and extracts the contact can be indirect. Here binding means that the protein was enriched with, or labelled near, the bait; the list need not be complete. Tags and fused reporters may be left off the sequences shown.

Turning to “endogenous 53BP1 (p53-binding protein 1), HEK293T (from UniProt Q12888 1-1972)”, the binding entry in experiment [1] and in experiment [2] was “binds” throughout.

The record behind these values is paper doi:10.1101/2025.03.18.643855.
